No constants are given. Whether binding was seen depends on the method and setting. Some binding calls cover weakened binding; strength is not graded here. Where a sequence is shown, tags or fusion partners need not be part of it.
T1: Flag-tagged FBXO24 (UniProt O75426)
T1 sequence: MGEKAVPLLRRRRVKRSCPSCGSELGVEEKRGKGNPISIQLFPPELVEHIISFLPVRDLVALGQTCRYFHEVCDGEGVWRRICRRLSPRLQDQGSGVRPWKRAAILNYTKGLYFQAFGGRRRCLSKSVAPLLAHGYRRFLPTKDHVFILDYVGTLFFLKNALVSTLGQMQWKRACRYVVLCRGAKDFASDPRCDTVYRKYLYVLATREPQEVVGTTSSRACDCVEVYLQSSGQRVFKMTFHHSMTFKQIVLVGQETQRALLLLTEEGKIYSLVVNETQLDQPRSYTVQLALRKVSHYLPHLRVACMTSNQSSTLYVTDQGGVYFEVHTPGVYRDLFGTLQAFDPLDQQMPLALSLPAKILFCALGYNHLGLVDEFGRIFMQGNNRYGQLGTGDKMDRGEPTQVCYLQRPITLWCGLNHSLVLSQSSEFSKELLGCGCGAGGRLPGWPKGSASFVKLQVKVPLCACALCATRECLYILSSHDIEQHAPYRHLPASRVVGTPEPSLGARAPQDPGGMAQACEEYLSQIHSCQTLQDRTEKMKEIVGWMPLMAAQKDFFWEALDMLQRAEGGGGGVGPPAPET


Molecular target: T1, Flag-tagged FBXO24
Experiment: pull-down; tagged FBXO24 overexpressed in HEK293T, immunoprecipitated on FLAG magnetic beads, suspended in PBS, incubated with increasing BC-1293 or control BC-1395 for 24 h at 4 °C; recombinant DARS2 or DARS1 added for 4 h at RT; washed with IP wash buffer, eluted by boiling, immunoblot; both purified

binding | Binder
no binding | recombinant human DARS1 (enzyme, UniProt P14868 1-501) MPSASASRKSQEKPREIMDAAEDYAKERYGISSMIQSQEKPDRVLVRVRDLTIQKADEVVWVRARVHTSRAKGKQCFLVLRQQQFNVQALVAVGDHASKQMVKFAANINKESIVDVEGVVRKVNQKIGSCTQQDVELHVQKIYVISLAEPRLPLQLDDAVRPEAEGEEEGRATVNQDTRLDNRVIDLRTSTSQAVFRLQSGICHLFRETLINKGFVEIQTPKIISAASEGGANVFTVSYFKNNAYLAQSPQLYKQMCICADFEKVFSIGPVFRAEDSNTHRHLTEFVGLDIEMAFNYHYHEVMEEIADTMVQIFKGLQERFQTEIQTVNKQFPCEPFKFLEPTLRLEYCEALAMLREAGVEMGDEDDLSTPNEKLLGHLVKEKYDTDFYILDKYPLAVRPFYTMPDPRNPKQSNSYDMFMRGEEILSGAQRIHDPQLLTERALHHGIDLEKIKAYIDSFRFGAPPHAGGGIGLERVTMLFLGLHNVRQTSMFPRDPKRLTP
binds | recombinant human DARS2 (enzyme, UniProt Q6PI48 48-645) VVRTNTCGELRSSHLGQEVTLCGWIQYRRQNTFLVLRDFDGLVQVIIPQDESAASVKKILCEAPVESVVQVSGTVISRPAGQENPKMPTGEIEIKVKTAELLNACKKLPFEIKNFVKKTEALRLQYRYLDLRSFQMQYNLRLRSQMVMKMREYLCNLHGFVDIETPTLFKRTPGGAKEFLVPSREPGKFYSLPQSPQQFKQLLMVGGLDRYFQVARCYRDEGSRPDRQPEFTQIDIEMSFVDQTGIQSLIEGLLQYSWPNDKDPVVVPFPTMTFAEVLATYGTDKPDTRFGMKIIDISDVFRNTEIGFLQDALSKPHGTVKAICIPEGAKYLKRKDIESIRNFAADHFNQEILPVFLNANRNWNSPVANFIMESQRLELIRLMETQEEDVVLLTAGEHNKACSLLGKLRLECADLLETRGVVLRDPTLFSFLWVVDFPLFLPKEENPRELESAHHPFTAPHPSDIHLLYTEPKKARSQHYDLVLNGNEIGGGSIRIHNAELQRYILATLLKEDVKMLSHLLQALDYGAPPHGGIALGLDRLICLVTGSPSIRDVIAFPKSFRGHDLMSNTPDSVPPEELKPYHIRVSKPTDSKAERAH
